Among all 320,000 compounds or so, about 620 (0.19%) were called active. Inconclusive means that the source gave no clear call. Such entries were picked first, then a sample of the others. Rule as the data show it: active = activation above about 80%; inconclusive = between about 30% and that limit; inactive = weaker than that.
Biological target: Transient receptor potential cation channel subfamily V member 1 (Homo sapiens) (UniProt Q8NER1)
Assay: HTS Assay for Compounds that Act as Agonists of the Vanilloid Receptor 1; also: 0% is about no effect
Conditions: TRPV1-expressing cells, Fluo-8 calcium influx, agonist mode; at 8.33 µM, active compounds read high
In short: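 Cells expressing TRPV1 were dye-loaded with Fluo-8 and read kinetically: 10 s baseline, 3 min after compound (agonist portion), then 2 min after EC20 capsaicin (allosteric enhancer portion). Calcium-bound dye fluorescence at 480/520 nm.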

Amino acid sequences for entries named in this document (tags omitted).
UniProt Q8NER1, whole entry, looked up: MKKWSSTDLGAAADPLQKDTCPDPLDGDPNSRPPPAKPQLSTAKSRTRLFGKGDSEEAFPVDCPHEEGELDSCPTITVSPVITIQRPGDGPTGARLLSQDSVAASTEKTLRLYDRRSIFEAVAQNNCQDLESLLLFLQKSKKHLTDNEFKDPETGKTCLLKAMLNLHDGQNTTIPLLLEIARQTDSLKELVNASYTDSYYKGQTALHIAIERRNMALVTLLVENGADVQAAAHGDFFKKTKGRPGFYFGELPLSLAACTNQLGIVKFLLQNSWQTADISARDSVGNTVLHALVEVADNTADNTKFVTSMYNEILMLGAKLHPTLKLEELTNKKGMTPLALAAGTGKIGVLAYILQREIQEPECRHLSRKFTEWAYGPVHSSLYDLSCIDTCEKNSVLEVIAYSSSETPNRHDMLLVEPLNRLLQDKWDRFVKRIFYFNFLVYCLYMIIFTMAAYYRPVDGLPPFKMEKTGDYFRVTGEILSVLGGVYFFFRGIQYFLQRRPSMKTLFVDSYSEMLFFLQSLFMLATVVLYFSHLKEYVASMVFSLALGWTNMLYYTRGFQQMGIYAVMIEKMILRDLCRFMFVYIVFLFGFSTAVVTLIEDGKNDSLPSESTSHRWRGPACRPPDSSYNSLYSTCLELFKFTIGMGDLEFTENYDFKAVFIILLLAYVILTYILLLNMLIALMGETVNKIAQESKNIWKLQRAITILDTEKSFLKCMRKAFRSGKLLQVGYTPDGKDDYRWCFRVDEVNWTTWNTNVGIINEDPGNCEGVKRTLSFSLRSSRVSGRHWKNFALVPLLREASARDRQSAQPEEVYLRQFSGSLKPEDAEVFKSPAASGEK

SMILES	activation
COc1cc(SC)ccc1C(=O)NCCOc1ccc(C)c(C)c1	inconclusive: 30.4%
COC(=O)c1ccc(CN2CCC(CO)(Cc3ccccc3Cl)CC2)cc1	inactive: 1.12%
CC(=O)N1CCN(S(=O)(=O)c2ccc(F)c(Cl)c2)CC1	inactive: 1.97%
CS(=O)(=O)Nc1ccc(C(=O)NCCSCc2c(F)cccc2Cl)cc1	inconclusive: 50.1%
CC(C)C(c1nnnn1Cc1ccccc1)N(CCCO)Cc1cc2cc3c(cc2[nH]c1=O)OCO3 (stereo not given)	inactive: 19.3%
O=C(NC(=S)Nc1ccccc1N1CCOCC1)c1ccccc1F	inconclusive: 33.8%
CC(C)c1ccc(OCC(=O)NC2=NCCS2)cc1	inconclusive: 47.2%
Cc1ccc2c(CC(=O)NCc3ccco3)coc2c1C	inconclusive: 51.9%
COCCn1c(C)cc(/C=C2/NC(=O)N(Cc3ccc(C)cc3)C2=O)c1C	inconclusive: 32%
O=C(c1nc(-c2ccccc2)n(-c2ccccc2)n1)N1CCCCCC1	inconclusive: 41.1%
O=[N+]([O-])c1ccc(S(=O)(=O)NNC(=S)NCCc2ccccc2)cc1	inactive: 1.51%
CC1CCN(C(=O)CCNS(=O)(=O)c2ccc(Br)cc2)CC1	inconclusive: 58.3%
COc1ccc(Cn2c(=O)n(Cc3ccco3)c(=N)c3c4c(sc32)COC(C)(C)C4)cc1	inconclusive: 33.1%
Cc1ccnc(NC(=O)C23CC4CC(CC(C4)C2)C3)c1	inconclusive: 38.4%
Cc1ccccc1CN(C)C(=O)[C@H](Cc1ccccc1)NC(=O)c1ccco1	inconclusive: 44.2%
Cc1ccc(-n2c(CNc3cccc(Cl)c3)n[nH]c2=S)cc1	inactive: -3.25%
CCN(CC(=O)Nc1ccc2c(c1)OCCO2)C(=O)/C=C/c1cccc(Br)c1	inconclusive: 39.1%
O=C(c1sc(N2CCOCC2)nc1-c1ccccc1)N1CCCCC1	inconclusive: 51.7%
O=C(Nc1cccnc1)c1cc(-c2ccc(Cl)c(Cl)c2)on1	inconclusive: 30.2%
Cc1ccccc1-n1c(SCc2cccc(F)c2)nc2[nH]ncc2c1=O	inconclusive: 31.8%
COc1ccc(CNC(=O)COC(=O)c2ccc(F)c(S(=O)(=O)N3CCCCC3)c2)cc1OC	inconclusive: 75.3%
NS(=O)(=O)c1ccc(CCNC(=O)C2CCN(S(=O)(=O)c3ccccc3)CC2)cc1	inactive: -1.79%
O=C(OCn1ncc(Br)c(Br)c1=O)c1ccccc1Cl	inactive: 1.57%

Three structures out of the list, ordered by SMILES length, rising:
SMILES	activation
Cc1ccc2c(CC(=O)NCc3ccco3)coc2c1C	inconclusive: 51.9%
Cc1ccccc1-n1c(SCc2cccc(F)c2)nc2[nH]ncc2c1=O	inconclusive: 31.8%
COc1ccc(Cn2c(=O)n(Cc3ccco3)c(=N)c3c4c(sc32)COC(C)(C)C4)cc1	inconclusive: 33.1%

(list continues)

SMILES	activation
COc1ccc2nc(NC(=O)C3CCN(C(=O)c4ccco4)CC3)sc2c1	inconclusive: 56.3%
O=C(C1CCN(CCCc2ccccc2)CC1)N(CCc1ccccc1)Cc1ccccc1	inactive: 0.666%
CNC(=O)COc1ccc2oc3c(c2c1)CCCC3	inconclusive: 63.2%
Cc1ccc(-n2c(O)c(C=Nc3cc(C)on3)c3ccccc3c2=O)c(C)c1	inconclusive: 34.7%
CC(C)n1c(CSCc2ccc(Cl)cc2Cl)n[nH]c1=S	inactive: 2.77%
CCN(c1ccccc1)S(=O)(=O)c1ccc(C(=O)Nc2ccc(C)cn2)cc1	inconclusive: 61.3%
Cc1ccccc1Cn1cccc1/C=C1/C(=N)N2C=CSC2=NC1=O	inconclusive: 46.2%
CCOC(=O)C1CCCN(CCC(=O)Nc2cccc(C)c2)C1 (stereo not given)	inconclusive: 78%
Cc1ccc(C(=O)Nc2ccc(F)cc2)o1	inconclusive: 32.3%
O=C(Cn1cnc2c(nnn2-c2ccc(F)cc2)c1=O)NCC1CCCO1 (stereo not given)	inactive: 2.29%
CCC1=Nc2cc(C(=O)NCc3cccnc3)ccc2Sc2ccc(C)cc21	inconclusive: 34.1%
CC(C(=O)Oc1ccc2c(c1)OCO2)N1C(=O)c2ccccc2C1=O (stereo not given)	inconclusive: 51.7%
CC(C)CCn1c(SCCc2ccccc2)nc2c1c(=O)[nH]c(=O)n2C	inconclusive: 35.5%
O=C(NCCC(c1ccccc1)c1ccco1)c1cccs1 (stereo not given)	inconclusive: 48.6%
Cc1c(C(=O)Nc2ccccc2)sc2nc3n(c(=O)c12)CCCCC3	inconclusive: 40.6%
COc1ccc(-c2nc(-c3ccncc3)no2)cc1	inactive: 14.1%
Cc1nc2ccccc2c2nc3ccccc3n12	inconclusive: 39.5%
O=C(NNC(=O)c1csc(-c2cnccc2C(F)(F)F)n1)c1ccc(C(F)(F)F)cc1	inconclusive: 45.7%
COc1cc(OC)cc(C(=O)NCCOC23CC4CC(CC(C4)C2)C3)c1	inactive: 19.2%
CSc1nnc2c3ccccc3n(Cc3ccccc3)c2n1	inactive: 5.12%
CC(C(Sc1ccccc1N)c1ccccc1)[N+](=O)[O-] (stereo not given)	inactive: 10.8%
CCOc1ccc(/C=C/C(=O)NCc2ccccc2)cc1	inconclusive: 39.9%
